Assay results: PubChem BioAssay AID220 (DTP/NCI, 2004)
The list is a part of this screen's results and no random one: it gathers tests that were run many times, whatever their T/C, doses with no T/C, and many T/C values between a quarter and a half above the control. Other doses and runs of a compound stand elsewhere. T/C is the treated group as % of the vehicle group. Schedule codes are those of the source, read here as Q, the interval in days (D) or hours (H), X, the number of doses. Some T/C values carry the count of animals alive at the toxicity check (mostly the fifth day); without a count, all were alive then. Some T/C values are negative: the treated tumours shrank. Some doses have a count of surviving animals in place of a T/C: the source holds a T/C of zero for them, seemingly a mark for toxic or unscored doses. Counts of survivors are from the toxicity check (mostly the fifth day) where no day follows; animals may have died later. Some doses were run more than once; their values stand side by side, smallest first. Starred links: 1 amine or outer side, 2 acyl side, 3 side chain; linkers in the order of their positions; H or OH if unused. Non-standard residues stand in square brackets, D forms with d. Residues, ends and D or L forms follow the SMILES beside them. *: point of attachment. X2 = CCC(=O)CC1CC(C)CC(C(=O)[*:2])N1[*:1]; X1 = CCCCCCCCC(C)C(=O)*; Aib = CC(C)(N)C(=O)O; X3 = CC(CN(C)CCO)N*

System: CD8F1 mice, subcutaneous mammary adenocarcinoma, T/C%
Assay: NCI In Vivo Anticancer Drug Screen. Data for tumor model Mammary Adenocarcinoma CD8F1 (subcutaneous) in CD8F1
Details: higher T/C = larger tumour
Summary of the method: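 Tumor-bearing mice, transplantable model; readout survival or tumor size; value = treated (T) / vehicle control (C).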

[1] = T/C endpoint: median tumor weight (est.), dose: 50.0 mg/kg/injection, schedule: Q07DX005 (ip), vehicle: saline with Tween-80, evaluated on day 30

Cc1cc(NCCCCCCCCNc2cc(C)nc3cc(N(C)C)ccc23)c2ccc(N(C)C)cc2n1
survivor count (T/C endpoint: median tumor weight change, dose: 62.0 mg/kg/injection, schedule: Q01DX001 (ip), vehicle: distilled water + Tween-80): 6 of 10 on day 28 | T/C (T/C endpoint: median tumor weight change, dose: 62.5 mg/kg/injection, schedule: Q01DX001 (ip), vehicle: distilled water + Tween-80, evaluated on day 36): 142 % of control | survivor count (T/C endpoint: median tumor weight change, dose: 125.0 mg/kg/injection, schedule: Q01DX001 (ip), vehicle: distilled water + Tween-80 + alcohol): 2 of 10 on day 39 | T/C (T/C endpoint: median tumor weight change, dose: 125.0 mg/kg/injection, schedule: Q01DX001 (ip), vehicle: distilled water + Tween-80, evaluated on day 36): -17 % of control [7 of 10 alive on day 36] | survivor count (T/C endpoint: median tumor weight change, dose: 125.0 mg/kg/injection, schedule: Q01DX001 (ip), vehicle: distilled water + Tween-80): 4 of 10 on day 28, 4 of 10 on day 34, 4 of 10 on day 36 | survivor count (T/C endpoint: median tumor weight change, dose: 250.0 mg/kg/injection, schedule: Q01DX001 (ip), vehicle: distilled water + Tween-80 + alcohol): 0 of 10 on day 39 | survivor count (T/C endpoint: median tumor weight change, dose: 250.0 mg/kg/injection, schedule: Q01DX001 (ip), vehicle: distilled water + Tween-80): 0 of 10 on day 28, 0 of 10 on day 34, 0 of 10 on day 36, 1 of 10 on day 36 | survivor count (T/C endpoint: median tumor weight change, dose: 500.0 mg/kg/injection, schedule: Q01DX001 (ip), vehicle: distilled water + Tween-80 + alcohol): 0 of 10 on day 39 and 6 of 10 on day 30 | survivor count (T/C endpoint: median tumor weight change, dose: 500.0 mg/kg/injection, schedule: Q01DX001 (ip), vehicle: distilled water + Tween-80): 0 of 10 on day 36

Cc1ccc2c(ccc(CC(=S)[S-])[n+]2C)c1
T/C (T/C endpoint: median tumor weight (est.), dose: 25.0 mg/kg/injection, schedule: Q07DX005 (ip), vehicle: Klucel (hydroxypropylcellulose) (HPC), evaluated on day 30): 137 % of control [9 of 10 alive on day 30] | survivor count (T/C endpoint: median tumor weight (est.), dose: 200.0 mg/kg/injection, schedule: Q07DX005 (ip), vehicle: Klucel (hydroxypropylcellulose) (HPC)): 3 of 10 on day 30 | survivor count (T/C endpoint: median tumor weight (est.), dose: 400.0 mg/kg/injection, schedule: Q07DX005 (ip), vehicle: Klucel (hydroxypropylcellulose) (HPC)): 0 of 10 on day 30

CC1(CO)C(O)CCC2(C)C1CCC1CC3CC12CCC3(O)CO (centres undefined)
T/C (T/C endpoint: median tumor weight (est.), dose: 75.0 mg/kg/injection, schedule: Q07DX005 (ip), vehicle: saline with Tween-80, evaluated on day 30): 147 % of control | T/C (T/C endpoint: median tumor weight (est.), dose: 150.0 mg/kg/injection, schedule: Q07DX005 (ip), vehicle: saline with Tween-80, evaluated on day 30): 147 % of control [5 of 6 alive]

ClC(Cl)(Cl)C1=NCc2nnn(Cc3ccccc3)c2N1
T/C [1]: 146 % of control [9 of 10 alive on day 30]

CC(=Nc1ccccc1)C1=C(O)C(Cc2ccccc2)NC1=O (centres undefined)
T/C [1]: 130 % of control

Nc1nc2n[nH]nc2c(=O)[nH]1
survivor count (T/C endpoint: median tumor weight change, dose: 1000.0 mg/kg/injection, schedule: Q01DX001 (ip), vehicle: suspension in saline): 0 of 10 on day 30 | survivor count (T/C endpoint: median tumor weight change, dose: 2000.0 mg/kg/injection, schedule: Q01DX001 (ip), vehicle: suspension in saline): 0 of 10 on day 30

O=c1c(O)c(-c2ccc(O)c(O)c2)oc2cc(O)cc(O)c12
T/C (T/C endpoint: median tumor weight (est.), dose: 12.5 mg/kg/injection, schedule: Q07DX005 (ip), vehicle: other, evaluated on day 30): 140 % of control | T/C (T/C endpoint: median tumor weight (est.), dose: 200.0 mg/kg/injection, schedule: Q07DX005 (ip), vehicle: other, evaluated on day 30): 133 % of control [9 of 10 alive]

CCC1=C[C@H]2CN(CCc3c([nH]c4ccccc34)[C@@](C(=O)OC)(c3cc4c(cc3OC)N(C)[C@H]3[C@@](O)(C(=O)OC)[C@H](OC(C)=O)[C@]5(CC)C=CCN6CC[C@]43[C@@H]65)C2)C1
T/C (T/C endpoint: median tumor weight change, dose: 1.0 mg/kg/injection, schedule: Q01DX001 (ip), vehicle: water, evaluated on day 35): 143 % of control [8 of 10 alive on day 35] | T/C (T/C endpoint: median tumor weight change, dose: 2.0 mg/kg/injection, schedule: Q01DX001 (ip), vehicle: water, evaluated on day 35): 146 % of control | T/C (T/C endpoint: median tumor weight change, dose: 2.5 mg/kg/injection, schedule: Q01DX001 (ip), vehicle: water, evaluated on day 32): 40 % of control | T/C (T/C endpoint: median tumor weight change, dose: 2.5 mg/kg/injection, schedule: Q01DX001 (ip), vehicle: water, evaluated on day 33): 66 % of control | T/C (T/C endpoint: median tumor weight change, dose: 2.5 mg/kg/injection, schedule: Q01DX001 (ip), vehicle: water, evaluated on day 35): 91 % of control | T/C (T/C endpoint: median tumor weight change, dose: 2.5 mg/kg/injection, schedule: Q01DX001 (ip), vehicle: water, evaluated on day 64): 75 % of control | T/C (T/C endpoint: median tumor weight change, dose: 5.0 mg/kg/injection, schedule: Q01DX001 (ip), vehicle: water, evaluated on day 32): 63 % of control [9 of 10 alive on day 32] | T/C (T/C endpoint: median tumor weight change, dose: 5.0 mg/kg/injection, schedule: Q01DX001 (ip), vehicle: water, evaluated on day 33): 87 % of control | T/C (T/C endpoint: median tumor weight change, dose: 5.0 mg/kg/injection, schedule: Q01DX001 (ip), vehicle: water, evaluated on day 35): 86 % of control | T/C (T/C endpoint: median tumor weight change, dose: 5.0 mg/kg/injection, schedule: Q01DX001 (ip), vehicle: water, evaluated on day 64): 14 % of control | T/C (T/C endpoint: median tumor weight change, dose: 10.0 mg/kg/injection, schedule: Q01DX001 (ip), vehicle: water, evaluated on day 32): 17 % of control | T/C (T/C endpoint: median tumor weight change, dose: 10.0 mg/kg/injection, schedule: Q01DX001 (ip), vehicle: water, evaluated on day 33): 54 % of control | T/C (T/C endpoint: median tumor weight change, dose: 10.0 mg/kg/injection, schedule: Q01DX001 (ip), vehicle: water, evaluated on day 35): 9 % of control [9 of 10 alive on day 35] | T/C (T/C endpoint: median tumor weight change, dose: 10.0 mg/kg/injection, schedule: Q01DX001 (ip), vehicle: water, evaluated on day 64): 97 % of control | survivor count (T/C endpoint: median tumor weight change, dose: 16.0 mg/kg/injection, schedule: Q01DX001 (ip), vehicle: water): 2 of 10 on day 35 | T/C (T/C endpoint: median tumor weight change, dose: 20.0 mg/kg/injection, schedule: Q01DX001 (ip), vehicle: water, evaluated on day 33): -3 % of control [7 of 10 alive on day 33] | survivor count (T/C endpoint: median tumor weight change, dose: 20.0 mg/kg/injection, schedule: Q01DX001 (ip), vehicle: water): 3 of 10 on day 35, 5 of 10 on day 32, 6 of 10 on day 64 | survivor count (T/C endpoint: median tumor weight change, dose: 40.0 mg/kg/injection, schedule: Q01DX001 (ip), vehicle: water): 0 of 10 on day 32 and 0 of 10 on day 33

CCCCCCCCC(C)C(=O)N1CCCC1C(=O)N1C(CC(=O)CC)CC(C)CC1C(=O)NC(C)C(=O)NC(C)(C)C(=O)NC(C)(C)C(=O)NC(C(=O)NC(C)C(=O)NC(C)(C)C(=O)NC(C)(C)C(=O)NC(C)CN(C)CCO)C(C)CC (centres undefined) (X1-P[X2]A[Aib][Aib]IA[Aib][Aib]-X3; configuration not given here)
survivor count (T/C endpoint: median tumor weight change, dose: 6.25 mg/kg/injection, schedule: Q01DX001 (ip), vehicle: other): 2 of 10 on day 38 | survivor count (T/C endpoint: median tumor weight change, dose: 6.25 mg/kg/injection, schedule: Q01DX001 (ip), vehicle: saline with Tween-80): 0 of 10 on day 28 | survivor count (T/C endpoint: median tumor weight change, dose: 12.5 mg/kg/injection, schedule: Q01DX001 (ip), vehicle: other): 0 of 10 on day 38 | survivor count (T/C endpoint: median tumor weight change, dose: 12.5 mg/kg/injection, schedule: Q01DX001 (ip), vehicle: saline with Tween-80): 0 of 10 on day 28 | survivor count (T/C endpoint: median tumor weight change, dose: 25.0 mg/kg/injection, schedule: Q01DX001 (ip), vehicle: other): 0 of 10 on day 38 | survivor count (T/C endpoint: median tumor weight change, dose: 25.0 mg/kg/injection, schedule: Q01DX001 (ip), vehicle: saline with Tween-80): 0 of 10 on day 28 | survivor count (T/C endpoint: median tumor weight change, dose: 50.0 mg/kg/injection, schedule: Q01DX001 (ip), vehicle: other): 0 of 10 on day 38 | survivor count (T/C endpoint: median tumor weight change, dose: 50.0 mg/kg/injection, schedule: Q01DX001 (ip), vehicle: saline with Tween-80): 0 of 10 on day 28

CCOC(=O)c1ccc(NC(=O)Nc2nncs2)cc1
T/C (T/C endpoint: median tumor weight (est.), dose: 100.0 mg/kg/injection, schedule: Q07DX005 (ip), vehicle: distilled water + Tween-80, evaluated on day 32): 125 % of control | T/C (T/C endpoint: median tumor weight (est.), dose: 200.0 mg/kg/injection, schedule: Q07DX005 (ip), vehicle: distilled water + Tween-80, evaluated on day 32): 135 % of control [9 of 10 alive]

CC(C)[NH-].CC(C)[NH-].O.O.[Cl][Pt+2][Cl]
T/C (T/C endpoint: median tumor weight (est.), dose: 3.12 mg/kg/injection, schedule: Q07DX005 (ip), vehicle: dextrose, evaluated on day 30): 145 % of control [9 of 10 alive]

Oc1c(Cl)cc(Cl)cc1C=NCCSc1ccc(Cl)cc1
survivor count (T/C endpoint: median tumor weight change, dose: 1000.0 mg/kg/injection, schedule: Q01DX001 (ip), vehicle: Klucel (hydroxypropylcellulose) (HPC)): 0 of 10 on day 29 and 0 of 10 on day 34

CC(=O)O[C@@H]1CO[C@H]2O[C@H]3[C@@H](C(C=O)=C[C@H](O)[C@@H]4C5=C(C(C)C)CC[C@]5(C)CC[C@@]34C)[C@@]2(O)C1=O
survivor count (T/C endpoint: median tumor weight change, dose: 30.0 mg/kg/injection, schedule: Q01DX001 (ip), vehicle: Klucel (hydroxypropylcellulose) (HPC)): 2 of 10 on day 28 and 3 of 10 on day 25 | survivor count (T/C endpoint: median tumor weight change, dose: 60.0 mg/kg/injection, schedule: Q01DX001 (ip), vehicle: Klucel (hydroxypropylcellulose) (HPC)): 0 of 10 on day 25 and 0 of 10 on day 28 | survivor count (T/C endpoint: median tumor weight change, dose: 120.0 mg/kg/injection, schedule: Q01DX001 (ip), vehicle: Klucel (hydroxypropylcellulose) (HPC)): 0 of 10 on day 25 and 0 of 10 on day 28

COc1ccc2ccccc2c1C1NC(=O)c2ccccc2N1 (centres undefined)
survivor count (T/C endpoint: median tumor weight change, dose: 2000.0 mg/kg/injection, schedule: Q01DX001 (ip), vehicle: Klucel (hydroxypropylcellulose) (HPC)): 4 of 10 on day 29
